In US9579329B2, “Use of estetrol as emergency contraceptive” (Estetra S.P.R.L., priority 2011, dated 2017):
At least one structure is not confirmed: it was looked up by name or label, or the drawing left a doubt.

Test system: ovulation in four-day cyclic rats
Test: Anti-ovulatory effect in four-day cyclic rats, oral twice daily for four days, ova per oviduct counted
Assay type: in vivo, rat
Conditions: Days 1-4, 8 rats per group
Procedure: Vaginal smears from female rats were obtained daily for two weeks prior to the start of treatment to identify four-day cycling rats. All treatments were administered orally twice daily at approximately 6:30 am and 4:30 pm for four consecutive days (Days 1-4), starting on the day of estrus. One day after the final dose (Day 5), the rats were euthanized by CO2 asphyxiation at approximately 1 pm, and the number of ova per oviduct was counted by visualization under a dissecting microscope and recorded. In one study, animals (8 per group) were treated with E4 (0.03; 0.1; 0.3; 1.0 or 3.0 mg/kg) or ethinylestradiol (EE) (0.0003; 0.001; 0.003, 0.01 or 0.03 mg/kg). The control group was given the vehicle only. In another study, the antiovulatory activity of E4 was evaluated relative to that of estradiol (E2). Animals (8 per group) were treated with E4, E2 or vehicle (control group).

## C#C[C@]1(O)CC[C@H]2[C@@H]3CCc4cc(O)ccc4[C@H]3CC[C@@]21C [EE, ethinylestradiol]
0.0003 mg/kg p.o. twice daily
  rats with ovulation inhibited: did not inhibit ovulation
0.001 mg/kg p.o. twice daily
  rats with ovulation inhibited: did not inhibit ovulation
0.003 mg/kg p.o. twice daily
  rats with ovulation inhibited: 1 of 8
0.01 mg/kg p.o. twice daily
  rats with ovulation inhibited: 4 of 8
0.03 mg/kg p.o. twice daily
  rats with ovulation inhibited: 8 of 8
